PubChem BioAssay AID1259308, NCATS – 2017

- Aim: 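Knock-downs that increase output of a recombinant reporter protein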 (primary screen)
- Cell system: human HEK293 embryonic kidney cells stably expressing firefly luciferase (HEK-CMV-Luc2-Hygro)
- Knock-down reagent: single siRNA against human genes, 0.8 pmol siRNA per well
- Timing: 72 h
- Measured: 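Luciferase light (ONE-Glo) measured on one replicate plate set and viability (CellTiter-Glo) on the other, scaled to a negative control siRNA, with robust z-scores and luciferase per cell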
- Direction: total luciferase, z-score and total luciferase, % of control: higher = more reporter protein produced
- Hit rule: 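An siRNA counts as active if its total luciferase robust z-score exceeds 3; genes with two or more such siRNAs out of three were retested with fresh siRNAs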
- Meaning of the calls: active = raised luciferase; inactive = no rise
Here is a random part of about 59,000 reagents tested. About 1,510 of them (2.6%) count as active. 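Calls use total luciferase alone and ignore viability, so some active siRNAs may act by altering cell number.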 The numbers tell different reagents against one gene apart. Further read-outs or replicates are left out here. No sequences are given here.

HSPG2 #1 showed total luciferase, z-score -0.443; total luciferase, % of control 73.1; inactive.
HSPG2 #2 scored total luciferase, z-score 1.67; total luciferase, % of control 115; inactive.
With knock-down of HSPG2 #3, the screen gave total luciferase, z-score -0.00929; total luciferase, % of control 81.7; inactive.
After knock-down of ZNHIT3 #1, the screen gave total luciferase, z-score -0.179; total luciferase, % of control 78.3; inactive.
After knock-down of ZNHIT3 #2, the record shows total luciferase, z-score -1.3; total luciferase, % of control 56.1; inactive.
For ZNHIT3 #3 the deposit lists total luciferase, z-score -1.31; total luciferase, % of control 55.8; inactive.
After knock-down of NUDT6 #1 the results were total luciferase, z-score 2.18; total luciferase, % of control 125; inactive.
With knock-down of NUDT6 #2 the results were total luciferase, z-score 0.708; total luciferase, % of control 96; inactive.
Against NUDT6 #3, the entry reads total luciferase, z-score -1.18; total luciferase, % of control 58.4; inactive.
Silencing of MRPL32 #1 resulted in: total luciferase, z-score -0.0571; total luciferase, % of control 80.8; inactive.
For MRPL32 #2 the deposit lists total luciferase, z-score -0.11; total luciferase, % of control 79.7; inactive.
MRPL32 #3 scored total luciferase, z-score 0.0317; total luciferase, % of control 82.5; inactive.

Taken from above:
NUDT6 #1, total luciferase, % of control = 125
Value for ZNHIT3 #1 under “total luciferase, z-score”: -0.179
